Several values for one entry are separate records, joined by “and”; a condition that tells them apart may be missing. Equal values may be shown once. Where a name gives a salt, the structure may show the parent alone. The list shows a part of the results. Most values lie at the level of the controls, where differences are scatter.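 Melting temperature was read by differential scanning fluorimetry in a single-replicate pilot screen of a library of approved drugs and clinical or known-target compounds. Compounds raising the melting point by at least 2 °C were the top stabilizing hits, and negative shifts mean destabilization.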
Tested on: SARS-CoV-2 main protease (Mpro, nsp5)
Test: thermal shift ΔTm of Mpro relative to plate average Tm; higher = stronger thermal stabilization of Mpro (binding)
Conditions: 10 µM; protein concentration 1 µM

| SMILES | thermal shift ΔTm of Mpro |
| --- | --- |
| C=C[C@H]1CN2CC[C@H]1C[C@H]2[C@H](O)c1ccnc2ccccc12 [Cinchonidine] | -0.0233 °C |
| O=C(O)c1ccc2nc(-c3cc(Cl)cc(Cl)c3)oc2c1 [Tafamidis] | -0.0794 °C |
| OCCn1cc(-c2cnc3nnn(Cc4ccc5ncccc5c4)c3n2)cn1 | 0.13 °C |
| O=C(O)c1ccccc1OP(=O)(O)O [Fosfosal] | 0.079 °C |
| Cc1ncc([N+](=O)[O-])n1CC(C)O (stereo not drawn) [Secnidazole] | -0.0697 °C |
| C/C=C(/C(=C/C)c1ccc(O)cc1)c1ccc(O)cc1 [Dienestrol] | -0.228 °C |
| COc1ccc2cc([C@H](C)C(=O)O)ccc2c1 [Naproxen] | 0.0316 °C and 0.0283 °C |
| N#Cc1cc(CN2CCC(Nc3ncnc4sc(Cl)cc34)CC2)ccc1F | -0.133 °C |
| C[C@]12CCC(=O)C=C1[C@@H]1C[C@@H]1[C@H]1[C@@H]3[C@@H]4C[C@@H]4[C@@]4(CCC(=O)O4)[C@@]3(C)CC[C@@H]12 [Drospirenone] | -0.0788 °C |
| Nc1c(C(=O)Nc2ccc(F)cc2)sc2nc(-c3cccs3)cc(C(F)(F)F)c12 | -0.103 °C |
| IC12CC3CC(CC(C3)C1)C2 | 0.0675 °C |
| CC1(C)S[C@@H]2[C@H](NC(=O)[C@H](N)c3ccccc3)C(=O)N2[C@H]1C(=O)O [Ampicillin Trihydrate] | -0.122 °C |
| CC1(C)S[C@@H]2[C@H](NC(=O)[C@H](N)c3ccccc3)C(=O)N2[C@H]1C(=O)O [Ampicillin sodium] | 0.133 °C |
| C=C[C@H]1CN2CC[C@H]1C[C@H]2[C@H](O)c1ccnc2ccc(OC)cc12 [Quinine HCl Dihydrate] | 0.0693 °C |
| CC(=O)NCCCCCC(=O)O [Acexamic Acid] | 0.198 °C |
| O=C(O)c1cc(=O)[nH]c(=O)[nH]1 [Orotic acid (6-Carboxyuracil)] | -0.108 °C |
| CC[C@@H]1CN(C(=O)NCC(F)(F)F)C[C@@H]1c1cnc2cnc3[nH]ccc3n12 [Upadacitinib] | -0.00845 °C |
| Cc1ccccc1C(C(=O)NC1CCCCC1)N(C(=O)Cn1ccnc1C)c1cccc(F)c1 (stereo not drawn) | -0.0775 °C |
| Cc1ccc(C(=O)Nc2ccc(CN3CCN(C)CC3)c(C(F)(F)F)c2)cc1C#Cc1cnc2[nH]ncc2c1 | 0.0385 °C |
| Oc1ccc(-c2nc(-c3ccc(F)cc3)c(-c3ccncc3)[nH]2)cc1 | 0.342 °C |
| COc1ccc2c(c1)[C@]13CCCC[C@@H]1[C@H](C2)N(C)CC3 [Dextromethorphan HBr monohydrate] | 0.351 °C |
| Cc1ccc(-n2nc(C(C)(C)C)cc2NC(=O)NCc2cc(F)ccc2Oc2ccc3c(cnn3CCO)c2)cc1 [Pexmetinib (ARRY-614)] | 0.125 °C |
| O=C(NC[C@H](O)CO)c1ccncc1Nc1ccc(I)cc1F | 0.343 °C |

2 entries drawn at random from the list so far, as already listed:

| SMILES | thermal shift ΔTm of Mpro |
| --- | --- |
| Cc1ncc([N+](=O)[O-])n1CC(C)O (stereo not drawn) [Secnidazole] | -0.0697 °C |
| CC1(C)S[C@@H]2[C@H](NC(=O)[C@H](N)c3ccccc3)C(=O)N2[C@H]1C(=O)O [Ampicillin Trihydrate] | -0.122 °C |

From the supplement of paper PMC8166895
